Some results were stated once for a whole list of compounds, not compound by compound. At least one structure is not confirmed: it was looked up by name or label, or the drawing left a doubt.
How the values were obtained:
[1] = tested on: apple scab bacteria (Venturia inaqualis); assay: Control test of apple scab; assay type: in vivo; settings: emulsion, active ingredient 100 ppm, sprayed on apple seedlings before inoculation; held 2 weeks at 20° C.
[2] = tested on: cucumber gray mold bacteria (Botrytis cinerea); assay: Control test of cucumber gray mold; settings: emulsion, active ingredient 100 ppm, sprayed on cucumber seedlings before inoculation; held 4 days at 20° C.

SMILES | protective value [1] | protective value [2]
CCCCC(=O)c1c(Cl)cccc1Oc1cnc2c(F)cccc2c1 [compound 371] | at least 75% | at least 75%
CC(=O)C(=O)c1c(F)cccc1Oc1cc2cccc(F)c2nc1C [compound 395] | at least 75% | at least 75%
CC(C)(CO)c1ccccc1Oc1cnc2c(F)cccc2c1 [compound 241] | – | at least 75%
CC(=NO)c1c(Cl)cccc1Oc1cnc2c(F)cccc2c1 [compound 315] | at least 75% | at least 75%
CC(C)(O)C(C)(C)c1c(F)cccc1Oc1cnc2c(F)cccc2c1 [compound 264] | at least 75% | at least 75%
C=C(C)C(=O)c1c(Cl)cccc1Oc1cnc2c(F)cccc2c1 [compound 364] | at least 75% | at least 75%
CC(O)c1c(Oc2cnc3c(F)cccc3c2)ccc(F)c1Cl (racemic) [compound 141] | at least 75% | at least 75%
CCC(C)(O)c1ccccc1Oc1cnc2c(F)cccc2c1 (centres unmarked) [compound 33] | at least 75% | at least 75%
CC(=NO)c1c(Br)cccc1Oc1cnc2c(F)cccc2c1 [compound 316] | at least 75% | at least 75%
C=C(C)c1ccccc1C(=O)c1cnc2ccccc2c1 [compound 338] | – | at least 75%
CC(C)(C)C(C)(O)c1c(F)cccc1Oc1cnc2c(c1)CCCC2 (centres unmarked) [b-8] | at least 75% | at least 75%
CC(=O)c1c(Br)cccc1Oc1cc2cccc(F)c2nc1C [compound 360] | at least 75% | at least 75%
COC(C)c1c(F)cccc1Oc1cnc2c(F)cccc2c1 (racemic) [compound 140] | at least 75% | at least 75%
CC(C)(O)Cc1ccccc1Oc1cnc2ccccc2c1 [compound 281] | at least 75% | at least 75%
C=CCOCc1c(Cl)cccc1Oc1cnc2c(F)cccc2c1 [compound 221] | at least 75% | at least 75%
CCOC(=O)C(F)(F)c1c(F)cccc1Oc1cnc2c(F)cccc2c1 [compound 292] | at least 75% | at least 75%
CCC(C)(O)c1c(F)cccc1Oc1cc2ccc(F)cc2nc1C (racemic) [compound 128] | at least 75% | at least 75%
C=C(C)Cc1c(F)cccc1C(=O)c1cnc2c(F)cccc2c1 [compound 348] | at least 75% | at least 75%
O=Cc1c(Oc2cnc3c(F)cccc3c2)cccc1[N+](=O)[O-] [compound 416] | at least 75% | at least 75%
CC(C)(C)C(C)(O)c1c(F)cccc1Oc1cnc2sccc2c1 (centres unmarked) [b-16] | at least 75% | at least 75%
COC(C)c1c(Cl)cccc1Oc1cnc2cc(F)ccc2c1 (centres unmarked) [compound 203] | at least 75% | at least 75%
Fc1cccc(Oc2cnc3c(F)cccc3c2)c1C1(OCc2ccccc2)CC1 [compound 297] | at least 75% | at least 75%

SMILES | protective value [1] | protective value [2]
C=CC(C)(O)c1c(F)cccc1Oc1cnc2c(F)cccc2c1 (racemic) [compound 76] | at least 75% | at least 75%
OC(c1c(Cl)cccc1Oc1cnc2c(F)cccc2c1)C1CC1 (centres unmarked) [compound 143] | at least 75% | at least 75%
Cc1nc2c(F)cccc2cc1Oc1ccc(F)c(Br)c1C(C)O (racemic) [compound 179] | at least 75% | at least 75%
CC(C)(O)C(C)(C)c1c(F)cccc1Oc1cnc2c(c1)CCCC2 [b-3] | at least 75% | at least 75%
CC(C)(CO)C(C)(C)c1c(F)cccc1Oc1cnc2c(F)cccc2c1 [compound 237] | at least 75% | at least 75%
CC(O)c1c(Oc2cnc3ccccc3c2)ccc(F)c1Cl (racemic) [compound 192] | at least 75% | at least 75%
CC(O)c1c(Cl)cccc1Oc1cnc2cc(F)ccc2c1 (centres unmarked) [compound 201] | at least 75% | at least 75%
C=CC(C)C(C)(O)c1c(F)cccc1Oc1cnc2c(F)cccc2c1 (centres unmarked) [compound 83] | at least 75% | at least 75%
CC(C)(O)C(C)(C)c1ccccc1Oc1cnc2c(F)cccc2c1 [compound 242] | at least 75% | at least 75%
COC(OC)C(C)(C)C(C)(C)c1ccccc1Oc1cnc2ccccc2c1 [compound 248] | at least 75% | at least 75%
Cc1nc2c(F)c(F)ccc2cc1Oc1cccc(Cl)c1C(C)O (centres unmarked) [compound 199] | at least 75% | at least 75%
CC(=NO)c1c(F)cccc1Oc1cc2cccc(F)c2nc1C [compound 314] | at least 75% | at least 75%
C=C(C)C(O)c1c(Cl)cccc1Oc1cnc2c(F)cccc2c1 (centres unmarked) [compound 144] | at least 75% | at least 75%
C[Si](C)(C)OC(c1c(F)cccc1Oc1cnc2ccccc2c1)(C(F)(F)F)C(F)(F)F [compound 113] | at least 75% | at least 75%
C=C(C)C(O)C(C)(C)c1ccccc1Oc1cnc2ccccc2c1 (racemic) [compound 255] | at least 75% | at least 75%
COC(=O)C(C)(C)C(C)(C)c1ccccc1Oc1cnc2ccccc2c1 [compound 250] | at least 75% | at least 75%
CC(C)(C#N)c1c(F)cccc1Oc1cnc2c(F)cccc2c1 [compound 432] | at least 75% | at least 75%
CC(C)(O)c1c(Oc2cnc3ccccc3c2)ccc(F)c1Cl [compound 115] | at least 75% | at least 75%
CC(C)(O)c1c(F)cccc1Oc1cnc2c(F)c(F)ccc2c1 [compound 124] | at least 75% | at least 75%
Cc1nc2cc(F)ccc2cc1Oc1cccc(F)c1C(C)(C)O [compound 106] | at least 75% | at least 75%
CC(O)c1c(I)cccc1Oc1cnc2c(F)cccc2c1 (centres unmarked) [compound 205] | at least 75% | at least 75%
Cc1ccc(Oc2cnc3c(F)cccc3c2)c(C(C)(C)O)c1 [compound 101] | at least 75% | at least 75%

SMILES | protective value [1] | protective value [2]
CC(=O)C(C)(C)C(C)(C)c1ccccc1Oc1cnc2ccccc2c1 [compound 233] | at least 75% | at least 75%
CC(C)(C)c1ccccc1C(=O)c1cnc2c(F)cccc2c1 [compound 57] | at least 75% | at least 75%
Cc1nc2c(F)cccc2cc1Oc1cccc(Cl)c1C(C)O (centres unmarked) [compound 151] | at least 75% | at least 75%
COCOC(C)C(F)(F)c1c(F)cccc1Oc1cc2cccc(F)c2nc1C (racemic) [compound 429] | at least 75% | at least 75%
COC(C)c1c(Oc2cnc3c(F)cccc3c2)ccc(F)c1Br (racemic) [compound 177] | at least 75% | at least 75%
CC(C)(O)c1ncccc1Oc1cnc2ccccc2c1 [a-2] | at least 75% | at least 75%
Cc1nc2c(F)cccc2cc1Oc1cccc(F)c1C(C)(O)C1CC1 (centres unmarked) [compound 90] | at least 75% | at least 75%
Cc1nc2c(F)cccc2cc1Oc1ccc(F)c(Cl)c1C(C)O (racemic) [compound 178] | at least 75% | at least 75%
CC(C)(O)c1cc(F)ccc1Oc1cnc2ccccc2c1 [compound 42] | – | at least 75%
CC(C)(O)c1cc(Cl)ccc1Oc1cnc2c(F)cccc2c1 [compound 99] | – | at least 75%
CC(C)(c1c(F)cccc1Oc1cnc2c(F)cccc2c1)S(C)(=O)=O [compound 275] | – | at least 75%
CC(=O)NC(C)(C)c1c(F)cccc1Oc1cnc2c(F)cccc2c1 [compound 436] | – | at least 75%
CC(C)(CO)C(C)(C)c1ccccc1Cc1cnc2ccccc2c1 [compound 326] | – | at least 75%
C=C(C)C(C)(O)c1c(F)cccc1Oc1cnc2c(F)cccc2c1 (centres unmarked) [compound 81] | – | at least 75%
CC(=O)N(Cc1ccccc1)C(C)(C)c1c(F)cccc1Oc1cnc2c(F)cccc2c1 [compound 444] | – | at least 75%
COc1cccc(Oc2cnc3ccccc3c2)c1C#N [compound 66] | at least 75% | –
CC1(C)CCc2cccc(Oc3cnc4ccccc4c3)c21 [compound 16] | at least 75% | –
O=C(CCl)c1c(F)cccc1Oc1cnc2c(F)cccc2c1 [compound 372] | at least 75% | –
COC(C)c1c(C#N)cccc1Oc1cnc2c(F)cccc2c1 (centres unmarked) [compound 153] | – | at least 75%
c1ccc(-c2ccccc2Oc2cnc3ccccc3c2)cc1 [compound 322] | at least 75% | –
CC(=O)C(=O)c1c(F)cccc1Oc1cnc2c(F)cccc2c1 [compound 396] | at least 75% | –
CN1CCc2cc(Oc3ccccc3C(C)(C)C(C)(C)O)cnc21 [b-13] | at least 75% | –

— US8772200B2, “Nitrogen-containing heterocyclic compound and agricultural fungicide” (Nippon Soda Co., Ltd., priority 2010, dated 2014)
